Among all 360,000 compounds or so, about 7,500 (2.1%) were called active. Inconclusive means that the source gave no clear call. Such entries were picked first, then a sample of the others. The call rests on the fitted dose curve; in most records, active means well fitted inhibition curve with a large enough effect; inconclusive means small, poorly fitted or top-dose-only effect, or effect the other way; inactive means flat fitted curve, though single readings scatter. Where the call is inconclusive, the potency comes from a doubtful curve fit.
Test: Nrf2 qHTS screen for inhibitors; further: nearly all actives have a fitted effect of over 60% in size
Conditions: A549 ARE-Fluc reporter, luciferase luminescence, 18-24 h; series mostly up to 46 µM
How it was run: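 Reporter: ARE-Fluc in A549. Exposure: 18-24 h, 37 °C, 5% CO2, 5% FBS OPTI-MEM. Readouts: fluorescent cytotoxicity (CellTiter-Fluor), then luminescent Nrf2 signal after BugLite.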
Potency means the concentration at half of the fitted maximal effect.

| SMILES | Potency |
| --- | --- |
| O=C(NCc1cccs1)c1ccc(CSc2nc3cccnc3n2Cc2ccccc2F)cc1 | inconclusive: 18.4 µM [falling, partial curve, poor fit] |
| COCCn1c(=S)[nH]c2ncccc2c1=O | inconclusive: 16.4 µM [falling, partial curve, poor fit] |
| COc1ccc(C2=C(C)C(=O)N(Cc3ccc(C(=O)NCc4cccc(C)c4)cc3)S2(=O)=O)cc1 | inconclusive: 1.64 µM [falling, full curve, poor fit] |
| COc1ccc2c(c1)c(N1CCCC1=O)c(C(=O)Nc1ccccc1C(F)(F)F)n2C | inactive |
| CC(OC(=O)c1ccccc1Nc1ccc(SC(F)F)cc1)C(N)=O (stereo unspecified) | active: 25.9 µM |
| CC(=O)C1=C(O)C(=O)N(c2nccs2)C1c1ccc(F)cc1 (stereo unspecified) | inconclusive: 23.1 µM [activator, partial curve] |
| CCCCNS(=O)(=O)c1ccc(NC(=O)c2c(-c3ccccc3Cl)noc2C)cc1 | inconclusive: 29.1 µM [falling, partial curve, poor fit] |
| O=C(CSc1nc(O)c(C2CCCCC2)c(=O)[nH]1)Nc1ccccc1Cl | inactive |
| Cn1c(=O)oc2cc(S(=O)(=O)Nc3cccc(C(=O)O)c3)ccc21 | inconclusive: 1.64 µM [activator, partial curve] |
| C/C(=N\NC(=O)c1ccccc1OCc1ccc(F)cc1)c1ccccn1 | inconclusive: 25.9 µM [falling, partial curve, poor fit] |
| CCCC(=O)Nc1c2c(nn1-c1ccc(F)cc1)CS(=O)(=O)C2 | inactive |
| O=C(/C=C/c1ccc(OC(F)F)cc1)Nc1cccc(S(=O)(=O)N2CCOCC2)c1 | inconclusive: 1.46 µM [falling, full curve, poor fit] |
| O=C(COc1ccc(F)cc1)Nc1ccc2nc(SCC(=O)N3CCOCC3)sc2c1 | inconclusive: 25.9 µM [falling, single point] |
| CCOC(=O)c1c(-c2cccs2)csc1NC(=O)CCCC(=O)O | inconclusive: 23.1 µM [falling, partial curve, poor fit] |
| CCCCN(Cc1cc2cc(C)ccc2[nH]c1=O)C(=O)c1ccccn1 | inconclusive: 1.64 µM [falling, partial curve, poor fit] |
| CCOC(=O)c1c(-c2cccs2)csc1NC(=O)CN1CC(C)OC(C)C1 (stereo unspecified) | inconclusive: 29.1 µM [falling, single point] |
| COc1ccccc1-c1cc(C(=O)N2CCN(c3ccccc3OC)CC2)no1 | inconclusive: 29.1 µM [falling, single point] |
| Cc1noc(C)c1S(=O)(=O)N1CCCC(C(=O)N2CCc3ccccc3C2)C1 (stereo unspecified) | inconclusive: 29.1 µM [falling, single point] |
| COc1ccc2c(c1)C(=O)CC(c1ccccc1)O2 (stereo unspecified) | inconclusive: 29.1 µM [activator, single point] |
| CCc1nnc2c(N3CCN(c4cc(Cl)ccc4C)CC3)nc3ccccc3n12 | inactive |
| CCOC(=O)/C=c1\s/c(=C\c2c(OC)ccc3ccccc23)c(=O)n1CC(=O)NCC1CCCO1 (stereo unspecified) | inconclusive: 23.1 µM [falling, partial curve, poor fit] |

| SMILES | Potency |
| --- | --- |
| O=C(Nc1cccc(-c2cn3c(n2)SCC3)c1)c1ccc2ccccc2n1 | inconclusive: 4.11 µM [activator, full curve] |
| Nc1c(-c2nc(-c3ccncc3)no2)nnn1CC(=O)Nc1ccccc1 | inactive |
| COc1cc2ccccc2cc1C(=O)Nc1ccc(C)cn1 | inconclusive: 2.31 µM [activator, full curve] |
| CC1CCCC(NC(=O)COC(=O)/C=C/c2ccco2)C1C (stereo unspecified) | inactive |
| CN(c1ccc(C(=O)NCc2ccccc2)cc1)S(C)(=O)=O | inactive |
| CCc1ccc2c(CN3CCN(S(=O)(=O)c4cccs4)CC3)cc(=O)oc2c1 | inconclusive: 20.6 µM [falling, single point] |
| Cc1ccc2cc3cc(C(=O)N(CC(=O)NC4CCCC4)c4cccc(C)c4C)sc3nc2c1 | inconclusive: 6.51 µM [falling, full curve, poor fit] |
| Cc1cccc(NC(=S)NCc2cccn2C)c1 | inactive |
| COc1ccc2nc(NC(=O)c3cc(=O)c4ccccc4o3)sc2c1 | inconclusive: 1.3 µM [activator, partial curve] |
| O=C(NCC1CC1)Nc1ccccc1 | inconclusive: 11.6 µM [activator, partial curve, poor fit] |
| Cc1c(C(=O)Nc2ccncc2)sc2nc(-c3ccc(F)cc3)cn12 | inconclusive: 20.6 µM [falling, partial curve, poor fit] |
| COc1cccc(Nc2nc3ccc(C(=O)c4ccccc4)cc3n3cnnc23)c1 | inconclusive: 3.26 µM [falling, partial curve] |
| O=C(NCC1CCCO1)c1ccc(COc2ccc(Cl)cc2)cc1 (stereo unspecified) | inconclusive: 29.1 µM [falling, single point] |
| CCN(CC)c1ccc(NC(=O)CNCc2ccccc2Cl)c(C)c1 | inconclusive: 29.1 µM [falling, single point] |
| Oc1ccc(/C=N/Nc2ccc(Cl)nn2)cc1O | inconclusive: 29.1 µM [activator, single point] |
| COc1cccc(-n2nc(C(=O)N3CCN(Cc4ccccc4)CC3)c3ccccc3c2=O)c1 | inconclusive: 5.8 µM [falling, partial curve, poor fit] |
| CN(C)C(=O)c1ccc(NC(=O)COC(=O)C2CCN(S(=O)(=O)c3ccc4c(c3)OCCO4)CC2)cc1 | inconclusive: 14.6 µM [falling, single point] |
| COc1cc(C(=O)Nc2cc(-c3nc4cc(C)ccc4o3)ccc2C)cc(OC)c1OC | inconclusive: 1.46 µM [activator, full curve, poor fit] |
| COc1ccccc1NS(=O)(=O)c1cccc(C(=O)N2CCCCCCC2)c1 | inactive |
| COc1ccc(/C=N/N2CCN(c3ccc(Cl)cc3)CC2)cc1O | inconclusive: 29.1 µM [falling, partial curve, poor fit] |

Quoted at random: three records from the list, in no set order.

| SMILES | Potency |
| --- | --- |
| COc1cccc(Nc2nc3ccc(C(=O)c4ccccc4)cc3n3cnnc23)c1 | inconclusive: 3.26 µM [falling, partial curve] |
| COc1ccccc1NS(=O)(=O)c1cccc(C(=O)N2CCCCCCC2)c1 | inactive |
| CCN(CC)c1ccc(NC(=O)CNCc2ccccc2Cl)c(C)c1 | inconclusive: 29.1 µM [falling, single point] |

Reference: PubChem BioAssay AID504444 (National Center for Advancing Translational Sciences (NCATS), 2011)
